In the supplement of paper PMC12819154, “High-throughput peptide-centric local stability assay extends protein–ligand identification to membrane proteins, tissues and bacteria” (Nature Structural & Molecular Biology, 2025):
Some of the results follow. Small differences around the control level are noise.

Amino acid sequences for entries named in this document (tags omitted). A change or cut given only in a name is not applied to a line headed by its entry.
UniProt Q9NWT1: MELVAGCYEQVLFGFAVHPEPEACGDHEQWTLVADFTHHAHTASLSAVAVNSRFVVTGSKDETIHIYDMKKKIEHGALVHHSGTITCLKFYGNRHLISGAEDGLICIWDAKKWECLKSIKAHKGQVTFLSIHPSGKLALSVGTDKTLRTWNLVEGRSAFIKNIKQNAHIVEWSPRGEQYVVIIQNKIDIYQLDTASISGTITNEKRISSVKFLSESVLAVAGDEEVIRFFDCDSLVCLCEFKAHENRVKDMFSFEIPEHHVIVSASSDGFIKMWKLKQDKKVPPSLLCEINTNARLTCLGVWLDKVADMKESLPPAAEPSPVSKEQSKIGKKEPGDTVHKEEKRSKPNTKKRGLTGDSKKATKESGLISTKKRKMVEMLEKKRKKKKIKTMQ
UniProt Q9NUM4, whole entry: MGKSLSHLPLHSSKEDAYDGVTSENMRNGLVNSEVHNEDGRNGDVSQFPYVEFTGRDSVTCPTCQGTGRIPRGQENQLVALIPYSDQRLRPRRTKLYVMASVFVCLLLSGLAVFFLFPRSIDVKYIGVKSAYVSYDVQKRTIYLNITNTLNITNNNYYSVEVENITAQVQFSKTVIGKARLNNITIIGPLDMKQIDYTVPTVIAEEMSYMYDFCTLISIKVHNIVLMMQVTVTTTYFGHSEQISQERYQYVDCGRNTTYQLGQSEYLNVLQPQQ
UniProt Q9NWX5: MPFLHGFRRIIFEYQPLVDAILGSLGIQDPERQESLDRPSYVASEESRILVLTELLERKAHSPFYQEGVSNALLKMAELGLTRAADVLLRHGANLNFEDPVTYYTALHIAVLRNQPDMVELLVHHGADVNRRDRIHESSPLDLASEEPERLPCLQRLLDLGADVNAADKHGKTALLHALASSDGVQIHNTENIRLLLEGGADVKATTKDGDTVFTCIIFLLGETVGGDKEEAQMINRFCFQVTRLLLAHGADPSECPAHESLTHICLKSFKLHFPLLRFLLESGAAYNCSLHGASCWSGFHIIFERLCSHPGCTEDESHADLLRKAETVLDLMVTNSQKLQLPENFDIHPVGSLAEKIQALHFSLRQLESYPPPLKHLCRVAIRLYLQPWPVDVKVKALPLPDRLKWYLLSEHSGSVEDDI
UniProt Q9NWV4: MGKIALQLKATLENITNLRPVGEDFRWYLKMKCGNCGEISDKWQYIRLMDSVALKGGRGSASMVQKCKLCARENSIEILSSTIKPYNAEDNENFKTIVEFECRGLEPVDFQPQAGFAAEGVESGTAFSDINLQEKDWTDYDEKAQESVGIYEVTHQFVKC
UniProt Q9NR81: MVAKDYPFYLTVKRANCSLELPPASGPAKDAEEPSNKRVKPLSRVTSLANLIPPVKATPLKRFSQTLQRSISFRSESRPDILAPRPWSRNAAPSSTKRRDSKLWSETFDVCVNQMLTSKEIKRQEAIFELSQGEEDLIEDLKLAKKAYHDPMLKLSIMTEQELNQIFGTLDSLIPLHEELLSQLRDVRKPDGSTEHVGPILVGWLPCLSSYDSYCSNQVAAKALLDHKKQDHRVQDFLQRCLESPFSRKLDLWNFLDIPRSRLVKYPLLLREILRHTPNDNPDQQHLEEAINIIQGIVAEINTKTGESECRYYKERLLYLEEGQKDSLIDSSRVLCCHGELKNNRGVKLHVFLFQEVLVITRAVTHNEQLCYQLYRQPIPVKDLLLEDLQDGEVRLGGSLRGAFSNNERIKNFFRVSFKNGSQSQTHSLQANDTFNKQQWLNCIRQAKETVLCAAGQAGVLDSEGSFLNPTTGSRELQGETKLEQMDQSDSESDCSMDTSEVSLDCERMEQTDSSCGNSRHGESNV
UniProt Q9NXA8: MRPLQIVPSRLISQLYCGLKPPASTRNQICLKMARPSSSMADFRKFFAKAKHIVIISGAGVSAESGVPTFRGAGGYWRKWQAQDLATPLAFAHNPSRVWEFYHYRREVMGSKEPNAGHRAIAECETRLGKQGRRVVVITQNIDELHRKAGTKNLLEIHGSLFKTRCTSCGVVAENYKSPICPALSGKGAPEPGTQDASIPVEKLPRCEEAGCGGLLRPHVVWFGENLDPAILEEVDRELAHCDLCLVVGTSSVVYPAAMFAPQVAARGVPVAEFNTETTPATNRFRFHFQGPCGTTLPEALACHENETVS
UniProt Q9NRH1: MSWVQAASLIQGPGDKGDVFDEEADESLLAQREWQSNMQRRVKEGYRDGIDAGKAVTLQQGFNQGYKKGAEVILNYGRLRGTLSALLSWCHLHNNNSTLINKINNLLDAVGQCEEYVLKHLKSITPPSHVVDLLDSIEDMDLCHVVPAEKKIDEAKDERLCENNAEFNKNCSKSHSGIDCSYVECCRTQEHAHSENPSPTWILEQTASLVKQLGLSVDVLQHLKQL
UniProt Q9NXR7, whole entry: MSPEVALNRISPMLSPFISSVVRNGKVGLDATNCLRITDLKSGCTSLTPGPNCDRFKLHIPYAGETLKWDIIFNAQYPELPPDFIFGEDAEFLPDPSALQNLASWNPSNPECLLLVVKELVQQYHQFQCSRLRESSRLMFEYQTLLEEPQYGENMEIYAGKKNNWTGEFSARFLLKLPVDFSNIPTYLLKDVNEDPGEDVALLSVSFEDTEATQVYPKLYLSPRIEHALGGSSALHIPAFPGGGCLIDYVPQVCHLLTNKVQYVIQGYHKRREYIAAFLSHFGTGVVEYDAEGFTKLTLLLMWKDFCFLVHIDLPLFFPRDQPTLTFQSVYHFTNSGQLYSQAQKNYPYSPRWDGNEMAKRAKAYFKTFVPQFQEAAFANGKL
UniProt Q9NVI7: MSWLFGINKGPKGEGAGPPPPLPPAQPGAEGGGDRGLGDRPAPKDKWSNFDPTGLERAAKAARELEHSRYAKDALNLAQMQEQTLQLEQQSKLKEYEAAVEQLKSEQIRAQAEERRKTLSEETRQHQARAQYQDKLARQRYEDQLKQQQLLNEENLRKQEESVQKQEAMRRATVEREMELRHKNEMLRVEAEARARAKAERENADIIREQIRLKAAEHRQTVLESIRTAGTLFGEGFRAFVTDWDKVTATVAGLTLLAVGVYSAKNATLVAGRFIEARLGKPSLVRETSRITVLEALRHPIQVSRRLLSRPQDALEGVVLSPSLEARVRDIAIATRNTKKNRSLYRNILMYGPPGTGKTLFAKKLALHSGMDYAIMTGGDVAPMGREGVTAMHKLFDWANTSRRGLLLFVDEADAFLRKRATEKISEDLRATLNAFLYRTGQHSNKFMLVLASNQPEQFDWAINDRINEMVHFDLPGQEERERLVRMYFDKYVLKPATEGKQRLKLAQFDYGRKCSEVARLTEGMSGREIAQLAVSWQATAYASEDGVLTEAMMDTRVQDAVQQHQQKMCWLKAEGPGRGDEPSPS
UniProt Q9NRN7: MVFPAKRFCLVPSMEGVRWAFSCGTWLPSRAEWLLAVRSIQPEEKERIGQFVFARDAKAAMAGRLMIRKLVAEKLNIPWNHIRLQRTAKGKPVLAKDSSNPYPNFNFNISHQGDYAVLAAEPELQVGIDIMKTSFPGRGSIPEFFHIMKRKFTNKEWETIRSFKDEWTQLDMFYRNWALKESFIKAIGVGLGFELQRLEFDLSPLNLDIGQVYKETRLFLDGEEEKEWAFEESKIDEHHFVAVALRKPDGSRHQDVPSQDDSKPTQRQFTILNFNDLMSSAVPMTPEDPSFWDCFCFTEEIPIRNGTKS
UniProt Q9NY74: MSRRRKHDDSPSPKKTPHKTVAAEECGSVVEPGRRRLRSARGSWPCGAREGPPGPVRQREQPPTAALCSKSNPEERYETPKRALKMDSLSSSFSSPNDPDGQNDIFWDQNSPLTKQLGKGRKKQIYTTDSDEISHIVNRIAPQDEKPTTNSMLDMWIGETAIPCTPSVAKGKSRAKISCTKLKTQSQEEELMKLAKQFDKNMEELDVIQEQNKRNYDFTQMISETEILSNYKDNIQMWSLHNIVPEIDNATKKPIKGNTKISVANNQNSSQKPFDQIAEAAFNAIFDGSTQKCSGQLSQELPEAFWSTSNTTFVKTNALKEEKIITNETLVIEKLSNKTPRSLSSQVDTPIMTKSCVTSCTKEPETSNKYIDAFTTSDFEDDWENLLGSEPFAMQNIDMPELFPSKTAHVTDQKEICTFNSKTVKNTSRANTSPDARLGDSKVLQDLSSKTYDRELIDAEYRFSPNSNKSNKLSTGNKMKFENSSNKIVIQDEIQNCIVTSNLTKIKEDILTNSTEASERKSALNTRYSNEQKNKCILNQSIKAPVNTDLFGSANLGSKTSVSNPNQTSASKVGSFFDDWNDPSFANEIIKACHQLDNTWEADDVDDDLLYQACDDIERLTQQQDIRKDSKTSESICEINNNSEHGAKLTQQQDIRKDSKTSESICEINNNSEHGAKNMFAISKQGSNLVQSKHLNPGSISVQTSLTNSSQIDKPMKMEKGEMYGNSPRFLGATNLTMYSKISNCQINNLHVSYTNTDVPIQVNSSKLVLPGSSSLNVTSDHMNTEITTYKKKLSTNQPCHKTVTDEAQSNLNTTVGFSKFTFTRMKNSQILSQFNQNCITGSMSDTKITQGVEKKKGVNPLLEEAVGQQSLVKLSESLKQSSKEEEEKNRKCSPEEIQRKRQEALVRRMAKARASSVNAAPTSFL
UniProt Q9NRS6: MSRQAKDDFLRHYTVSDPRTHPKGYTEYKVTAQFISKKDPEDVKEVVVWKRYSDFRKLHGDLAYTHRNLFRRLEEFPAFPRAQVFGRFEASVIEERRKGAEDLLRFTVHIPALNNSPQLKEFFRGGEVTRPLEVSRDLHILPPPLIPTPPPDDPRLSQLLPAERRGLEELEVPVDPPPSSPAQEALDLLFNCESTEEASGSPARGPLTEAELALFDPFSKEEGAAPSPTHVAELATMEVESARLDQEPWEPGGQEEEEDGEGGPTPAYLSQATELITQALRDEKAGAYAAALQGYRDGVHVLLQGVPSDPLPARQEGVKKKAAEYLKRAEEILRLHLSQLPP
UniProt Q9NWB7: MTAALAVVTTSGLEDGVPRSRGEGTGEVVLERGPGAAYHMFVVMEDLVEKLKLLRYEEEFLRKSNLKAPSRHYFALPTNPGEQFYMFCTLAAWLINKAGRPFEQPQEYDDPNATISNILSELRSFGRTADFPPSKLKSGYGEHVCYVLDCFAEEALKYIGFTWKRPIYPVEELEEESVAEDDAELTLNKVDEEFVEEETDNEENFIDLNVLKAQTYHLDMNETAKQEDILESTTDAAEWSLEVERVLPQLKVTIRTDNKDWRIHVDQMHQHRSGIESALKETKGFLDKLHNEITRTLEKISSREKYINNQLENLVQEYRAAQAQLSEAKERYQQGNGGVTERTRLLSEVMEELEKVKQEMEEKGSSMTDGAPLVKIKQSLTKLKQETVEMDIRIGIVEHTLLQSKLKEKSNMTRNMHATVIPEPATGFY
UniProt Q9NX01: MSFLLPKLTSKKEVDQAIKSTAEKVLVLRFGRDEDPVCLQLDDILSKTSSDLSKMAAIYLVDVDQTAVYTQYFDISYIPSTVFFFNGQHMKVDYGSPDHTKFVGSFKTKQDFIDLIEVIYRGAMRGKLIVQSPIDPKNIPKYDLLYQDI
UniProt Q9NVJ2: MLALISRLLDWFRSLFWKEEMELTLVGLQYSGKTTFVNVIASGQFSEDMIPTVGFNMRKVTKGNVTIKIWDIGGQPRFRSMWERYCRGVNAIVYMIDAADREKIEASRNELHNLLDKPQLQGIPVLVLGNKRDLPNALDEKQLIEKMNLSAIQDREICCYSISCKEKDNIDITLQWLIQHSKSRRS
UniProt Q9NYD6, whole entry: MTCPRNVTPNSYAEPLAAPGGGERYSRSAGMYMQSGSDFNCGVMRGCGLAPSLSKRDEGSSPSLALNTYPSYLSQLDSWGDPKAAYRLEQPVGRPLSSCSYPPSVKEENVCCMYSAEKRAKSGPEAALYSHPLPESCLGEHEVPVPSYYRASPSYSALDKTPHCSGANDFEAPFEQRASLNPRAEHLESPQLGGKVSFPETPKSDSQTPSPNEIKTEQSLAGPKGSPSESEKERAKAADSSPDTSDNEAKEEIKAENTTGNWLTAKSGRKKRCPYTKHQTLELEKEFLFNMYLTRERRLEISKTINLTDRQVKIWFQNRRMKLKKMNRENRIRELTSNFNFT
UniProt Q9NSD9: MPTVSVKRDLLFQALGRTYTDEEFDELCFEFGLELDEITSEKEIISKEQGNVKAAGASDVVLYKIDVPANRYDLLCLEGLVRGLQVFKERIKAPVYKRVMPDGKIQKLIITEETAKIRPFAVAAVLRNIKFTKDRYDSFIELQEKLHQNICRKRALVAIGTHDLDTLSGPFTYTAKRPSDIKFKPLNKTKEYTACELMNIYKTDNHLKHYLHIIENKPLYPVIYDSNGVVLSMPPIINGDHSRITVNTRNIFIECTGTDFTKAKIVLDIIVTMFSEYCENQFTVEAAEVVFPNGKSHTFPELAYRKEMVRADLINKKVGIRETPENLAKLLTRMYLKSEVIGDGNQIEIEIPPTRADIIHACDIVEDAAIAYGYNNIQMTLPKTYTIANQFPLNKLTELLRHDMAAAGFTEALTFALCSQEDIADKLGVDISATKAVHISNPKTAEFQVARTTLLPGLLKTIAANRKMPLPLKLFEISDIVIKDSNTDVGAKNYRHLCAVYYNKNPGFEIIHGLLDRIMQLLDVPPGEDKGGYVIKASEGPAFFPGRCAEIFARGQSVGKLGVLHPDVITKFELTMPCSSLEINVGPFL

compound: CN[C@@H]1C[C@H]2O[C@@](C)([C@@H]1OC)n1c3ccccc3c3c4c(c5c6ccccc6n2c5c31)C(=O)NC4 [staurosporine]; assay: log2 fold change of tryptic peptide abundance, ligand vs vehicle (limited proteolysis) (log2 ratio); higher = more trypsin-susceptible (destabilized); settings: ligand concentration: 20 uM; sample: K562 cleared lysate; digestion: 4 min, 22 C (HT-PELSA RT4min, Orbitrap Astral)

Target	log2 fold change
RNF146 (peptide sequence: SVAGGGTVSVSVR, peptide start residue: 334) (UniProt Q9NTX7)	-0.454
PAK1IP1 (peptide sequence: EPGDTVHKEEKR, peptide start residue: 333) (UniProt Q9NWT1)	-0.13
SMC4 (peptide sequence: CHEMKPNLGAIAEYK, peptide start residue: 1083) (UniProt Q9NTJ3)	0.363
MTMR4 (peptide sequence: LLNTAVPR, peptide start residue: 704) (UniProt Q9NYA4)	-0.31
TMEM106B (peptide sequence: NGLVNSEVHNEDGR, peptide start residue: 28) (UniProt Q9NUM4)	-0.114
AAAS (peptide sequence: GQWINLPVLQLTKDPLK, peptide start residue: 40) (UniProt Q9NRG9)	0.702
ASB6 (peptide sequence: LQLPENFDIHPVGSLAEK, peptide start residue: 340) (UniProt Q9NWX5)	0.239
GDAP2 (peptide sequence: MEGDIDKQR, peptide start residue: 290) (UniProt Q9NXN4)	0.527
UniProt Q9NYU1 (peptide sequence: MAQLLVVLGK, peptide start residue: 981)	0.471
SH3GLB2 (peptide sequence: NFLEGDWK, peptide start residue: 146) (UniProt Q9NR46)	0.132
NKIRAS2 (peptide sequence: LWEVSVADRR, peptide start residue: 146) (UniProt Q9NYR9)	0.819
UniProt Q9NWV4 (peptide sequence: ATLENITNLRPVGEDFR, peptide start residue: 10)	0.569
UniProt Q9NR81 (peptide sequence: CLESPFSR, peptide start residue: 293)	0.229
SIRT5 (peptide sequence: SPICPALSGK, peptide start residue: 178) (UniProt Q9NXA8)	-0.43
AATF (peptide sequence: VSEEVEKGR, peptide start residue: 217) (UniProt Q9NY61)	-0.936
DNAJC11 (peptide sequence: HSVLGAAVSVGVPQGVSLK, peptide start residue: 346) (UniProt Q9NVH1)	-0.488
UniProt Q9NRH1 (peptide sequence: EWQSNMQR, peptide start residue: 33)	-0.203
UniProt Q9NXR7 (peptide sequence: ELVQQYHQFQCSR, peptide start residue: 119)	0.369
UniProt Q9NYW8 (peptide sequence: SQMEMKPFECSECGK, peptide start residue: 254)	0.723

Looked up above:
Value for AAAS (peptide sequence: GQWINLPVLQLTKDPLK, peptide start residue: 40) (UniProt Q9NRG9) under log2 fold change: 0.702
Value for UniProt Q9NR81 (peptide sequence: CLESPFSR, peptide start residue: 293) under log2 fold change: 0.229
Value for UniProt Q9NRH1 (peptide sequence: EWQSNMQR, peptide start residue: 33) under log2 fold change: -0.203

(cont.)

Target	log2 fold change
ATAD3A (peptide sequence: SWLFGINKGPK, peptide start residue: 2) (UniProt Q9NVI7)	-0.147
FAM49B (peptide sequence: EAIQHPADEKLQEK, peptide start residue: 65) (UniProt Q9NUQ9)	-0.111
AASDHPPT (peptide sequence: AIGVGLGFELQR, peptide start residue: 186) (UniProt Q9NRN7)	-0.252
AURKAIP1 (peptide sequence: EAPEGWQTPK, peptide start residue: 184) (UniProt Q9NWT8)	0.0883
ACSS2 (peptide sequence: YNFDVTK, peptide start residue: 82) (UniProt Q9NR19)	-0.41
VPS45 (peptide sequence: LVMLYALHYER, peptide start residue: 387) (UniProt Q9NRW7)	0.432
SH2B1 (peptide sequence: AAQLVLTGGTGSHGVFLVR, peptide start residue: 537) (UniProt Q9NRF2)	-0.242
PIH1D1 (peptide sequence: RMQNSDFLR, peptide start residue: 131) (UniProt Q9NWS0)	0.417
SACM1L (peptide sequence: TNVIQSLLAR, peptide start residue: 396) (UniProt Q9NTJ5)	0.235
BSDC1 (peptide sequence: EEAPTDLR, peptide start residue: 359) (UniProt Q9NW68)	-0.132
ETAA1 (peptide sequence: EQPPTAALCSK, peptide start residue: 60) (UniProt Q9NY74)	-0.397
SNX15 (peptide sequence: EVVVWKR, peptide start residue: 45) (UniProt Q9NRS6)	-0.314
IFT57 (peptide sequence: GEGTGEVVLER, peptide start residue: 22) (UniProt Q9NWB7)	-0.763
RLIM (peptide sequence: SHHSISSQTFEHPLVNETEGSSR, peptide start residue: 242) (UniProt Q9NVW2)	0.586
TXNL4B (peptide sequence: TKQDFIDLIEVIYR, peptide start residue: 108) (UniProt Q9NX01)	0.377
UniProt Q9NVJ2 (peptide sequence: GVNAIVYMIDAADREK, peptide start residue: 88)	0.445
UniProt Q9NYD6 (peptide sequence: EFLFNMYLTR, peptide start residue: 203)	0.561
FARSB (peptide sequence: IKAPVYKR, peptide start residue: 91) (UniProt Q9NSD9)	0.714
